Assay results reported in PMC12661029.
These are yes or no findings as the source states them, for the method shown. Some binding calls cover weakened binding; strength is not graded here. Where a sequence is shown, tags or fusion partners need not be part of it. Blank lines part the entries; values can stand above or below the molecule they belong to.

Protein sequences, listed by entry. Tags and fused reporters are not part of them.
UniProt Q03330: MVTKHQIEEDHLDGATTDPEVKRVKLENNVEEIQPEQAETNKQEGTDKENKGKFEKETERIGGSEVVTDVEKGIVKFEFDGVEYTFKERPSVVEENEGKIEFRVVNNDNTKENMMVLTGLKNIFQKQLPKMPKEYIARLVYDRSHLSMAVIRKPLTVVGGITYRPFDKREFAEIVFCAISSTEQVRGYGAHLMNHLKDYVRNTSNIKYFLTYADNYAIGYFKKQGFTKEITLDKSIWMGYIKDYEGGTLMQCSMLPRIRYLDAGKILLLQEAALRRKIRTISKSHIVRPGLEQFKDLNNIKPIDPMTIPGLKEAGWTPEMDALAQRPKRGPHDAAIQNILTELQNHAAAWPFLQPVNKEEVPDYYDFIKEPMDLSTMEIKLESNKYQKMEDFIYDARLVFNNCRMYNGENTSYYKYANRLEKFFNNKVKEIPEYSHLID

Assays:
[1] = target: T1, C-terminally hexahistidine tagged Ada3(187-702), subunit of the yeast Ada2/Ada3/Gcn5 complex (yeast) (UniProt P32494); assay: co-purification of coexpressed subunits; subunits coexpressed in E. coli BL21(DE3)pLysS (0.2 mM IPTG, 18 °C); complex captured from cell lysates by the C-terminal hexahistidine tag of Ada3(187-702) on Talon cobalt resin, then SourceQ ion-exchange chromatography
T1 sequence: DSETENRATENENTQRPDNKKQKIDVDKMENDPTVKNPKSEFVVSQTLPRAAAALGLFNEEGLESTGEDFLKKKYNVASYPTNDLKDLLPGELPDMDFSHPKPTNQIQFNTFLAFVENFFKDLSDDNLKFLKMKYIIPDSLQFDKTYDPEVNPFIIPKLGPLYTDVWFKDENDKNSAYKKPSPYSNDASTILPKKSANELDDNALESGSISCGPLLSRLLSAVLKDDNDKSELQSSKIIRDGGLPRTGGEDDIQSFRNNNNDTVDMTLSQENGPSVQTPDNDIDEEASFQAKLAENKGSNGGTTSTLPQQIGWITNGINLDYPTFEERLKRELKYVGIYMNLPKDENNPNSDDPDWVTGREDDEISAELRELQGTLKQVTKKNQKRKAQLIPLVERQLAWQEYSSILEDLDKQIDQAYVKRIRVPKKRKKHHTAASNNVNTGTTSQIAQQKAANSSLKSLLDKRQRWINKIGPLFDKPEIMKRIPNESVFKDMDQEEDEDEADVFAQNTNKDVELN

[2] = target: T2, hexahistidine-tagged Epl1(51-380), subunit of yeast Piccolo NuA4 (yeast) (UniProt P43572); assay: co-purification of coexpressed subunits; subunits coexpressed in E. coli BL21(DE3)pLysS; complex captured by the hexahistidine tag of Epl1(51-380) on Talon cobalt resin, tag removed by TEV protease, then SourceQ anion-exchange chromatography
T2 sequence: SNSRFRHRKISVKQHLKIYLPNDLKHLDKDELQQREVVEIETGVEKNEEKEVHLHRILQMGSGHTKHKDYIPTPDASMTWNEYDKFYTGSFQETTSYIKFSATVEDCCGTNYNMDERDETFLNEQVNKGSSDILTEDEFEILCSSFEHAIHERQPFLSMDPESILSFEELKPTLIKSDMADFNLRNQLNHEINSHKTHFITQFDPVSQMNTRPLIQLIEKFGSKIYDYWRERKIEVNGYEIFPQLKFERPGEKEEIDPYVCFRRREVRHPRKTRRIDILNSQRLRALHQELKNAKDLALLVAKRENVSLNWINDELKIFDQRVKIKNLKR

B1: Ada2, subunit of the yeast Ada2/Ada3/Gcn5 complex (protein, UniProt Q02336 1-434)
chain: MSNKFHCDVCSADCTNRVRVSCAICPEYDLCVPCFSQGSYTGKHRPYHDYRIIETNSYPILCPDWGADEELQLIKGAQTLGLGNWQDIADHIGSRGKEEVKEHYLKYYLESKYYPIPDITQNIHVPQDEFLEQRRHRIESFRERPLEPPRKPMASVPSCHEVQGFMPGRLEFETEFENEAEGPVKDMVFEPDDQPLDIELKFAILDIYNSRLTTRAEKKRLLFENHLMDYRKLQAIDKKRSKEAKELYNRIKPFARVMTAQDFEEFSKDILEELHCRARIQQLQEWRSNGLTTLEAGLKYERDKQARISSFEKFGASTAASLSEGNSRYRSNSAHRSNAEYSQNYSENGGRKKNMTISDIQHAPDYALLSNDEQQLCIQLKILPKPYLVLKEVMFRELLKTGGNLSKSACRELLNIDPIKANRIYDFFQSQNWM
binding [1]: binds

B2: Esa1, subunit of yeast Piccolo NuA4 (enzyme, UniProt Q08649 1-445)
chain: MSHDGKEEPGIAKKINSVDDIIIKCQCWVQKNDEERLAEILSINTRKAPPKFYVHYVNYNKRLDEWITTDRINLDKEVLYPKLKATDEDNKKQKKKKATNTSETPQDSLQDGVDGFSRENTDVMDLDNLNVQGIKDENISHEDEIKKLRTSGSMTQNPHEVARVRNLNRIIMGKYEIEPWYFSPYPIELTDEDFIYIDDFTLQYFGSKKQYERYRKKCTLRHPPGNEIYRDDYVSFFEIDGRKQRTWCRNLCLLSKLFLDHKTLYYDVDPFLFYCMTRRDELGHHLVGYFSKEKESADGYNVACILTLPQYQRMGYGKLLIEFSYELSKKENKVGSPEKPLSDLGLLSYRAYWSDTLITLLVEHQKEITIDEISSMTSMTTTDILHTAKTLNILRYYKGQHIIFLNEDILDRYNRLKAKKRRTIDPNRLIWKPPVFTASQLRFAW
binding [2]: binds

Second part, the molecule after the results:

binding [1]: binds
Molecule: Gcn5, subunit of the yeast Ada2/Ada3/Gcn5 complex (from UniProt Q03330 1-439) (enzyme)

binding [2]: binds
B3: Yng2(1-218), subunit of yeast Piccolo NuA4 (domain or fragment, UniProt P38806 1-218)
chain: MDPSLVLEQTIQDVSNLPSEFRYLLEEIGSNDLKLIEEKKKYEQKESQIHKFIRQQGSIPKHPQEDGLDKEIKESLLKCQSLQREKCVLANTALFLIARHLNKLEKNIALLEEDGVLAPVEEDGDMDSAAEASRESSVVSNSSVKKRRAASSSGSVPPTLKKKKTSRTSKLQNEIDVSSREKSVTPVSPSIEKKIARTKEFKNSRNGKGQNGSPENEE
